Data published in PubChem BioAssay AID1487 (National Center for Advancing Translational Sciences (NCATS), 2009).
Where “and” joins values, the source holds several entries; their conditions need not be identical. Equal values may be shown once. Some of the results follow. The main result of the screen is listed elsewhere. These columns were measured beside it and carry no call. Compounds called inactive in the main read-out are mostly missing here. Potencies come from curve fits of mixed quality, noted in brackets.

Test: qHTS Assay for Modulators of Lamin A Splicing
Details: HeLa LMNA splicing GFP/RFP minigene ratio, 48 h
Outline: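 S3 HeLa cells stably expressing lamin A-EGFP splicing minigene plus DsRed2, 600 cells/well, 48 h compound exposure at 37C. Laser-scanning cytometry; analysed as GFP (500-530 nm)/RFP (575-640 nm) total intensity ratio; 0.5% DMSO vehicle.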

[1] = measured here: RFP viability control channel
[2] = measured here: GFP splicing reporter channel

SMILES | AC50 [1] | AC50 [2]
Cc1ccc(S(=O)(=O)/N=C2/NC(=O)/C(=C/c3ccc(Br)o3)S2)cc1 | 35.5 µM [rising, single point] | 
CC(C)(C)c1ccc(/C=C/C(=O)Nc2ccncc2)cc1 | 5.62 µM [rising, full curve] | 3.98 µM [rising, full curve]
COc1cc(-c2nnc(SCc3cc(=O)oc4cc(C)ccc34)o2)cc(OC)c1OC | 15.8 µM [rising, partial curve] | 5.62 µM [rising, full curve]
CCOc1ccccc1-c1nc(-c2ccc(C)nc2OC)no1 | 11.2 µM [rising, single point] | 
CCC(C)(C)C(=O)O[C@@H]1C[C@H](C)C=C2C=C[C@H](C)[C@@H](CC[C@H]3C[C@@H](O)CC(=O)O3)[C@H]21 | 0.000355 µM [rising, full curve, poor fit] | 14.1 µM [falling, single point]
O=C(/C=C/c1cccc(Cl)c1)N1CCC(Cc2ccccc2)CC1 | 25.1 µM [rising, single point] | 25.1 µM [rising, single point]
COc1ccc(/C=N/NC(=O)c2ccc(O)cc2)cc1CN1CCCc2ccccc21 | 15.8 µM [rising, single point] | 
CCOC(=O)N(Cc1ccccc1)C(C(=O)O)C(C(=O)O)N(Cc1ccccc1)C(=O)OCC (stereo not given) | 35.5 µM [rising, single point] | 
C#CCn1c(C)cc(C)c(S(=O)(=O)c2ccccc2)c1=O | 3.98 µM [falling, partial curve] | 3.55 µM [falling, partial curve]
O=C1CC(N2CCC(c3nc4ccccc4o3)CC2)C(=O)N1c1ccc(Cl)c(C(F)(F)F)c1 (stereo not given) | 20 µM [rising, single point] | 35.5 µM [rising, single point]
O=C(CSC1=NCCN1)Nc1cccc(C(F)(F)F)c1 | 0.00447 µM [falling, full curve, poor fit] | 35.5 µM [falling, single point]
CCOc1ccc(NC(=O)CN2CCC(n3cnc4cc(F)ccc43)CC2)cc1 | 0.0251 µM [rising, full curve, poor fit] | 
O=[N+]([O-])c1ccc2[nH]c(O)c(N=NC(=S)NCC3CCCO3)c2c1 (stereo not given) |  | 0.0141 µM [rising, single point]
N#Cc1cc2c(=O)n3ccccc3nc2n(CCCn2ccnc2)c1=N | 8.91 µM [rising, partial curve] | 
CCOC(=O)Cc1c(C)nc2c(-c3ccccc3OC)c(C)nn2c1C |  | 25.1 µM [rising, partial curve, poor fit]
Cc1ccc(NC(=O)c2cc(-c3ccc(C)o3)nc3ccccc23)nc1 | 31.6 µM [rising, single point] | 
CCOC(=O)c1cccc(NC(=O)Cn2nc3c(cc2=O)CCCC3)c1 | 0.0501 µM [falling, full curve, poor fit] | 
OC(CN1c2ccccc2Sc2ccccc21)Cn1nnc2ccccc21 (stereo not given) | 12.6 µM [rising, partial curve] | 
CCOC(=O)c1c(NC(=O)CSc2nnc3ccccn23)sc2c1CCC2 | 1.58 µM [rising, full curve, poor fit] | 1.12 µM [rising, full curve, poor fit]
Cc1c(Cl)cccc1-n1ncc(C(=O)N2CCN(C)CC2)c1C1CCN(C(=O)OC(C)(C)C)CC1 | 6.31 µM [falling, single point] | 
Cc1cccc(C(=O)NNC(=O)c2ccccc2-n2cccc2)c1 | 10 µM [falling, partial curve, poor fit] | 
Cn1cc(/C=N\O)nc2c(=O)n(-c3ccccc3)c(=O)nc1-2 | 4.47 µM [rising, full curve, poor fit] | 3.16 µM [rising, full curve]
CCOC(=O)c1sc(Nc2cccc(C)c2C)nc1C |  | 35.5 µM [rising, single point]
CN(c1nc2nonc2nc1NC1CC1)C1CCOC1 (stereo not given) |  | 14.1 µM [falling, single point]
Cc1nn(-c2ccccc2)c(N)c1Sc1cccc([N+](=O)[O-])c1 | 31.6 µM [rising, single point] | 
CCNC(=O)COC(=O)CCC(=O)c1cccs1 | 0.02 µM [falling, full curve] | 0.0178 µM [falling, full curve, poor fit]
Cc1cccc(NC(=O)C(C)OC(=O)c2ccccc2NS(=O)(=O)c2cc(C)c(C)c([N+](=O)[O-])c2)c1 (stereo not given) | 35.5 µM [rising, single point] | 17.8 µM [rising, single point]

SMILES | AC50 [1] | AC50 [2]
Cc1ccc(/C=N/NC(=O)c2ccccc2OCc2cccc(Br)c2)o1 | 12.6 µM [falling, partial curve] | 12.6 µM [falling, partial curve]
CC1=NN(C(=O)c2ccc(Br)cc2)C(O)(c2ccccc2)C1 (stereo not given) | 11.2 µM [rising, partial curve, poor fit] | 14.1 µM [rising, partial curve, poor fit]
CCn1c2c(c(=N)c3c1CCC3)CCC2 | 14.1 µM [rising, partial curve] | 7.94 µM [rising, partial curve]
CCS(=O)(=O)N1Cc2ccccc2CC1C(=O)Nc1nnc(SCc2c(Cl)cccc2Cl)s1 (stereo not given) | 12.6 µM [rising, partial curve] | 
OC[C@H]1O[C@@H](n2cnc3cncnc32)[C@H](O)[C@@H]1O | 3.55 µM [falling, full curve] and 7.08 µM [falling, full curve] | 2.82 µM [falling, full curve] and 5.62 µM [falling, full curve]
CCc1nc(SCC(=O)N2c3ccccc3Sc3ccccc32)c2ccccc2n1 |  | 3.55 µM [rising, partial curve, poor fit]
Cc1ccc(C)c(N2C(=O)N(Cc3c(F)cccc3Cl)c3ccccc3S2(=O)=O)c1 | 0.00316 µM [falling, full curve] | 
COc1ccc(/C=C(\C#N)C(=O)OCC(=O)Nc2ccc(C(C)(C)C)cc2)cc1 | 35.5 µM [rising, single point] | 
Cc1c(Br)c([N+](=O)[O-])nn1CC(=O)Nc1ccc(C(N)=O)cc1 | 1.12 µM [rising, full curve, poor fit] | 
CC1Oc2ccccc2C=C1/C=N/NC(=O)c1ccccc1O (stereo not given) | 1 µM [rising, partial curve, poor fit] | 
c1ccc(OCc2noc(CN3CCC(C4CCCCC4)C3)n2)cc1 (stereo not given) | 0.0178 µM [falling, full curve, poor fit] | 
CCOc1ccc(NC(=O)CCN2CCN(S(=O)(=O)c3cc(Cl)ccc3OC)CC2)cc1 | 11.2 µM [rising, partial curve, poor fit] | 
O=C1C(Cl)=C(Nc2ccccc2)C(=O)c2ccccc21 | 11.2 µM [rising, partial curve] | 35.5 µM [rising, single point]
N#C/C(=C\c1cccs1)c1nc2ccccc2[nH]1 | 7.94 µM [rising, partial curve] | 
Cc1[nH]c2ccccc2c1/C=N/Nc1nc(Nc2ccccc2)nc(N2CCOCC2)n1 | 3.16 µM [rising, partial curve, poor fit] | 6.31 µM [falling, single point]
CCOC(=O)N1CCN(C(=O)CSCC(=O)Nc2nc(-c3ccc(OC)cc3)cs2)CC1 | 14.1 µM [rising, single point] | 
NS(=O)(=O)c1cccc(-n2cnnn2)c1 | 0.00447 µM [falling, full curve, poor fit] | 
O=c1cc(N2CCN(c3ccccc3)CC2)[nH]c(=O)n1-c1ccccc1Cl |  | 3.98 µM [rising, full curve, poor fit]
Cc1ccc(NC(=O)C2CCN(S(=O)(=O)c3cccc4nonc34)CC2)nc1 | 17.8 µM [rising, partial curve, poor fit] | 
CCCCSc1nc(O)cc(=O)n1CC | 15.8 µM [rising, single point] | 
COc1ccc(C(=O)NCC(c2ccc(Cl)cc2)N2CCCCC2)cc1 (stereo not given) | 0.224 µM [falling, full curve, poor fit] | 35.5 µM [falling, single point]
O=C1N/C(=N/N=C/c2ccc(O)cc2)SC1Cc1ccccc1 (stereo not given) |  | 35.5 µM [rising, single point]
CCN=c1scc(-c2cccs2)n1/N=C/c1cc(OC)ccc1O | 8.91 µM [rising, partial curve] | 7.94 µM [rising, partial curve]
COc1ccc(CN(C(=O)CSc2nnc(-c3ccc(F)cc3)o2)c2ccc(F)cc2)cc1 | 35.5 µM [rising, single point] | 25.1 µM [rising, single point]
Cc1cc(C)nc(SCC(=O)NC2=NN=C(c3ccc(Br)cc3)CS2)n1 | 22.4 µM [falling, partial curve] | 15.8 µM [falling, single point]
CCOc1nc(OCC)nc(-n2cc(-c3ccccc3)nn2)n1 | 14.1 µM [rising, single point] | 11.2 µM [rising, single point]

Part of the list above in another layout.
SMILES	AC50 [1]	AC50 [2]
CC(C)(C)c1ccc(/C=C/C(=O)Nc2ccncc2)cc1	5.62 µM [rising, full curve]	3.98 µM [rising, full curve]
CCOC(=O)N(Cc1ccccc1)C(C(=O)O)C(C(=O)O)N(Cc1ccccc1)C(=O)OCC (stereo not given)	35.5 µM [rising, single point]	
C#CCn1c(C)cc(C)c(S(=O)(=O)c2ccccc2)c1=O	3.98 µM [falling, partial curve]	3.55 µM [falling, partial curve]
Cc1cccc(C(=O)NNC(=O)c2ccccc2-n2cccc2)c1	10 µM [falling, partial curve, poor fit]	
CN(c1nc2nonc2nc1NC1CC1)C1CCOC1 (stereo not given)		14.1 µM [falling, single point]
Cc1nn(-c2ccccc2)c(N)c1Sc1cccc([N+](=O)[O-])c1	31.6 µM [rising, single point]	
Cc1[nH]c2ccccc2c1/C=N/Nc1nc(Nc2ccccc2)nc(N2CCOCC2)n1	3.16 µM [rising, partial curve, poor fit]	6.31 µM [falling, single point]
NS(=O)(=O)c1cccc(-n2cnnn2)c1	0.00447 µM [falling, full curve, poor fit]	
COc1ccc(C(=O)NCC(c2ccc(Cl)cc2)N2CCCCC2)cc1 (stereo not given)	0.224 µM [falling, full curve, poor fit]	35.5 µM [falling, single point]
